The list is a part of this screen's results and no random one: it gathers tests that were run many times, whatever their T/C, doses with no T/C, and many T/C values between a quarter and a half above the control. Further doses and runs are listed elsewhere. T/C gives the treated animals as a percentage of the vehicle group. Some doses have a count of surviving animals in place of a T/C: the source files T/C as zero there, which appears to mark a toxic dose or a test without result, not a measured value. Some doses without a T/C left all or most animals alive at the check, yet need not have been tolerated: survival well below the control is almost never listed, so the zero probably covers shortened survival too. Survivors were counted at the toxicity check, usually on the fifth day, unless a day is given; later deaths do not show. Schedules are NCI's codes, taken here to give the interval after Q, in days (D) or hours (H), and the number of doses after X. Some entries were tested several times; their values stand side by side, smallest first. For survival time, the PubChem record calls one and a half times the control and up active, and a quarter to a half above the control has no call in these data; cut-offs in other NCI protocols can differ. Some T/C values are followed by the survivors on the day toxicity was checked, most often the fifth; where none is given, no animal had died by that day.
Tested on: P388 leukemia ip, CD2F1 mice, survival T/C
Assay: NCI In Vivo Anticancer Drug Screen. Data for tumor model P388 Leukemia (intraperitoneal) in CD2F1 (CDF1) mice
Settings: T/C endpoint: median survival time, higher T/C = longer survival
[1] = dose: 240.0 mg/kg/injection, schedule: Q01DX005 (ip), vehicle: Klucel (hydroxypropylcellulose) (HPC)
[2] = dose: 200.0 mg/kg/injection, schedule: Q01DX005 (ip), vehicle: Klucel (hydroxypropylcellulose) (HPC)
[3] = dose: 200.0 mg/kg/injection, schedule: Q01DX009 (ip), vehicle: saline
[4] = dose: 25.0 mg/kg/injection, schedule: Q01DX009 (ip), vehicle: saline
[5] = dose: 50.0 mg/kg/injection, schedule: Q01DX009 (ip), vehicle: saline
[6] = dose: 100.0 mg/kg/injection, schedule: Q01DX009 (ip), vehicle: saline
[7] = dose: 200.0 mg/kg/injection, schedule: Q01DX005 (ip), vehicle: saline with Tween-80
[8] = dose: 100.0 mg/kg/injection, schedule: Q01DX009 (ip), vehicle: water
[9] = dose: 50.0 mg/kg/injection, schedule: Q01DX005 (ip), vehicle: Klucel (hydroxypropylcellulose) (HPC)
[10] = dose: 100.0 mg/kg/injection, schedule: Q01DX005 (ip), vehicle: Klucel (hydroxypropylcellulose) (HPC)

In the case of `CNC(=O)OCc1c(COC(=O)NC)c2n(c1C)-c1ccc(OC)cc1CCC2`, the T/C (dose: 1.87 mg/kg/injection, schedule: Q01DX005 (ip), vehicle: Klucel (hydroxypropylcellulose) (HPC)) is reported as 125 % of control, the T/C (dose: 3.75 mg/kg/injection, schedule: Q01DX005 (ip), vehicle: Klucel (hydroxypropylcellulose) (HPC)) is reported as 135 % of control and the T/C (dose: 7.5 mg/kg/injection, schedule: Q01DX005 (ip), vehicle: Klucel (hydroxypropylcellulose) (HPC)) is reported as 147 % of control. For the same compound, the T/C (dose: 15.0 mg/kg/injection, schedule: Q01DX005 (ip), vehicle: Klucel (hydroxypropylcellulose) (HPC)) was 144 % of control, the survivor count (dose: 30.0 mg/kg/injection, schedule: Q01DX005 (ip), vehicle: Klucel (hydroxypropylcellulose) (HPC)) was 4 of 6 and the survivor count (dose: 60.0 mg/kg/injection, schedule: Q01DX005 (ip), vehicle: Klucel (hydroxypropylcellulose) (HPC)) was 4 of 6. The survivor count (dose: 120.0 mg/kg/injection, schedule: Q01DX005 (ip), vehicle: Klucel (hydroxypropylcellulose) (HPC)) was 0 of 6 and the survivor count [1] was 0 of 6.
For `Cc1cccc(C)c1-n1c(C)nc2c(c(C)c(C)n2-c2ccccc2)c1=N`, the survivor count [2] was 0 of 6.
`CCOC(=O)Nc1ccc(C2OCCS2)cc1` (stereo unspecified) was tested, and the survivor count (dose: 100.0 mg/kg/injection, schedule: Q01DX005 (ip), vehicle: saline with Tween-80) was 6 of 6.
For `CN1CCN(c2ccncc2S(=O)(=O)N2CCOCC2)CC1`, the survivor count [3] was 1 of 6.
With `Cc1cc(C)c2c(=O)n(-c3ccccc3C)c(=S)n(-c3ccccc3C)c2n1` the survivor count (dose: 240.0 mg/kg/injection, schedule: Q01DX005 (ip), vehicle: saline with Tween-80) was 6 of 6.
With `CCC(=O)NC(Cc1cccc(F)c1)C(=O)O` (stereo unspecified) the survivor count [4] was 2 of 6, the survivor count [5] was 0 of 6 and the survivor count [6] was 0 of 6. For the same compound, the survivor count [3] was 0 of 6.
With `O/N=C\C[n+]1cc2ccccc2cc1/C=N\O` the survivor count [7] was 0 of 6.
`c1ccc2c(c1)Sc1ccccc1N2CCCN1CCCC1` was tested, and the survivor count [6] was 0 of 6, the survivor count (dose: 100.0 mg/kg/injection, schedule: Q04DX002 (ip), vehicle: saline) was 2 of 6 and the survivor count [3] was 0 of 6. For the same compound, the survivor count (dose: 200.0 mg/kg/injection, schedule: Q04DX002 (ip), vehicle: saline) was 0 of 6 and the survivor count (dose: 400.0 mg/kg/injection, schedule: Q04DX002 (ip), vehicle: saline) was 0 of 6.
With `O=C1/C(=C/c2ccncc2)CCCc2ccccc21` the survivor count [1] was 0 of 6.
With `O=C1C(=O)c2ccccc2C(O)=C1CC=C(Cl)Cl` the survivor count [8] was 0 of 6, the survivor count (dose: 200.0 mg/kg/injection, schedule: Q01DX009 (oral), vehicle: water) was 3 of 6 and the survivor count (dose: 400.0 mg/kg/injection, schedule: Q01DX009 (oral), vehicle: water) was 0 of 6.
With `CCc1nc(N)nc(N)c1-c1ccc(NC)c([N+](=O)[O-])c1` the T/C (dose: 25.0 mg/kg/injection, schedule: Q01DX005 (ip), vehicle: Klucel (hydroxypropylcellulose) (HPC)) was 135 % of control, the T/C [9] was 136 and 142 % of control and the survivor count [10] was 6 of 6. The survivor count [2] was 5 of 6.
In the case of `CCNC(=O)OCc1c(COC(=O)NCC)c(-c2ccc(F)cc2)n2c1CCC2`, the T/C (dose: 6.25 mg/kg/injection, schedule: Q01DX009 (ip), vehicle: distilled water + Tween-80) is reported as 127 % of control, the T/C (dose: 12.5 mg/kg/injection, schedule: Q01DX009 (ip), vehicle: distilled water + Tween-80) is reported as 133 % of control and the T/C (dose: 25.0 mg/kg/injection, schedule: Q01DX009 (ip), vehicle: distilled water + Tween-80) is reported as 129 % of control. For the same compound, the survivor count (dose: 50.0 mg/kg/injection, schedule: Q01DX009 (ip), vehicle: distilled water + Tween-80) was 3 of 6.
In the case of `COP(=O)(OC)OC.COP(=O)(OC)OC.COP(=O)(OC)OC.COP(=O)(OC)OC.COP(=O)(OC)OC.[O-][Cl+3]([O-])([O-])O.[Zn+2]`, the survivor count [3] is reported as 0 of 6 and 1 of 6.
With `C=C(C)C(=O)OCC1CO1` (stereo unspecified) the survivor count (dose: 400.0 mg/kg/injection, schedule: Q01DX009 (ip), vehicle: water) was 0 of 6.
With `COc1cccc2c1C(=O)c1c(O)c3c(c(O)c1C2=O)CC(O)(C(C)=O)CC3OC1CC([N+](C)(C)C)C(O)C(C)O1` (stereo unspecified) the survivor count (dose: 6.25 mg/kg/injection, schedule: Q01DX009 (ip), vehicle: water) was 6 of 6, the survivor count (dose: 50.0 mg/kg/injection, schedule: Q01DX009 (ip), vehicle: water) was 3 of 6 and the survivor count [8] was 0 of 6.
With `O=S(=O)(F)/C=C/c1ccccc1` the survivor count (dose: 200.0 mg/kg/injection, schedule: Q01DX009 (ip), vehicle: saline with Tween-80) was 2 of 6.
In the case of `C1CN2CN3CCN(CN1C3)C2`, the T/C (dose: 12.5 mg/kg/injection, schedule: Q01DX009 (ip), vehicle: saline) is reported as 128 % of control, the T/C [4] is reported as 146 % of control and the T/C [5] is reported as 136 % of control. The T/C [6] was 129 % of control [5 of 6 alive] and the survivor count [3] was 5 of 6 and 6 of 6.
For `CCCCCC(=O)NC1C(O)OC(CO)C(O)C1O` (stereo unspecified), the survivor count [2] was 2 of 5.
For `COC1C(N)C(OC2C(Oc3cccc4c(O)c5c(=O)oc6ccc(C)c7c(=O)oc(c34)c5c67)OC(C)C(O)C2(C)O)OC(C)C1O` (stereo unspecified), the survivor count (dose: 10.0 mg/kg/injection, schedule: Q01DX009 (ip), vehicle: other) was 4 of 6 and the survivor count (dose: 20.0 mg/kg/injection, schedule: Q01DX009 (ip), vehicle: other) was 0 of 6.
In the case of `NNC(=O)CCCl`, the survivor count (dose: 42.0 mg/kg/injection, schedule: Q01DX009 (ip), vehicle: saline) is reported as 5 of 6, the survivor count (dose: 84.0 mg/kg/injection, schedule: Q01DX009 (ip), vehicle: saline) is reported as 0 of 6 and the survivor count (dose: 168.0 mg/kg/injection, schedule: Q01DX009 (ip), vehicle: saline) is reported as 0 of 6.
For `CC(=O)OC(CC=C(C)C)C1=CC(=O)c2c(O)ccc(O)c2C1=O` (stereo unspecified), the survivor count (dose: 25.0 mg/kg/injection, schedule: Q01DX005 (ip), vehicle: saline with Tween-80) was 3 of 6, the survivor count (dose: 50.0 mg/kg/injection, schedule: Q01DX005 (ip), vehicle: saline with Tween-80) was 0 of 6 and the survivor count (dose: 100.0 mg/kg/injection, schedule: Q01DX001 (ip), vehicle: saline with Tween-80) was 1 of 6. The survivor count (dose: 200.0 mg/kg/injection, schedule: Q01DX001 (ip), vehicle: saline with Tween-80) was 0 of 6 and the survivor count (dose: 400.0 mg/kg/injection, schedule: Q01DX001 (ip), vehicle: saline with Tween-80) was 0 of 6.
For `CC(Cl)CNCC(C)(C)C` (stereo unspecified), the survivor count (dose: 200.0 mg/kg/injection, schedule: Q01DX005 (ip), vehicle: saline) was 4 of 6.
For `O=C(O)/C=N/NS(=O)(=O)c1ccc(Cl)cc1`, the T/C (dose: 12.5 mg/kg/injection, schedule: Q01DX009 (ip), vehicle: other) was 126 % of control, the T/C (dose: 25.0 mg/kg/injection, schedule: Q01DX009 (ip), vehicle: other) was 134 and 142 % of control and the T/C (dose: 50.0 mg/kg/injection, schedule: Q01DX009 (ip), vehicle: other) was 134 % of control. The survivor count (dose: 100.0 mg/kg/injection, schedule: Q01DX009 (ip), vehicle: other) was 0 of 6, the survivor count (dose: 200.0 mg/kg/injection, schedule: Q01DX009 (ip), vehicle: other) was 2 of 6 and the survivor count (dose: 400.0 mg/kg/injection, schedule: Q01DX009 (ip), vehicle: other) was 1 of 6.
`Cc1ccc(C(=O)NN2C(N)=NC(N)=NC2(C)C)cc1` was tested, and the survivor count (dose: 200.0 mg/kg/injection, schedule: Q04DX003 (ip), vehicle: saline) was 6 of 6.
In the case of `ClCC(Br)CBr` (stereo unspecified) (tested in a mixture with another compound), the survivor count [5] is reported as 2 of 6.
For `O=C1C(Cl)=C(N2CCOCC2)C(=O)C(Cl)=C1N1CCOCC1`, the survivor count (dose: 200.0 mg/kg/injection, schedule: Q01DX005 (ip), vehicle: suspension in saline) was 0 of 6.
With `CCCCCC(C)N(C)C(=O)CNCC(C)C` (stereo unspecified) the survivor count [7] was 0 of 6.
With `CCN(CC)CCCC(CO)Nc1ccnc2cc(Cl)ccc12` (stereo unspecified) the survivor count (dose: 200.0 mg/kg/injection, schedule: Q01DX009 (ip), vehicle: Klucel (hydroxypropylcellulose) (HPC)) was 1 of 6 and 4 of 6.
In the case of `CCN=C(NCC)Nc1ccc(NC(=O)Nc2ccc(NC(=O)Nc3ccc(NC(=NCC)NCC)cc3)cc2)cc1`, the T/C [9] is reported as 130 % of control, the T/C [10] is reported as 126 % of control and the survivor count [10] is reported as 6 of 6.

— PubChem BioAssay AID330 (DTP/NCI, 2004)
